Measurements from publication PMC4332439.
Results are given in words; binding and its absence hold for the method and conditions named. In cells and extracts the contact can be indirect. Some binding calls cover weakened binding; strength is not graded here.

By UniProt entry, the sequences of proteins in these tests, tags left out. Residues count along the entry.
UniProt Q7TQN4: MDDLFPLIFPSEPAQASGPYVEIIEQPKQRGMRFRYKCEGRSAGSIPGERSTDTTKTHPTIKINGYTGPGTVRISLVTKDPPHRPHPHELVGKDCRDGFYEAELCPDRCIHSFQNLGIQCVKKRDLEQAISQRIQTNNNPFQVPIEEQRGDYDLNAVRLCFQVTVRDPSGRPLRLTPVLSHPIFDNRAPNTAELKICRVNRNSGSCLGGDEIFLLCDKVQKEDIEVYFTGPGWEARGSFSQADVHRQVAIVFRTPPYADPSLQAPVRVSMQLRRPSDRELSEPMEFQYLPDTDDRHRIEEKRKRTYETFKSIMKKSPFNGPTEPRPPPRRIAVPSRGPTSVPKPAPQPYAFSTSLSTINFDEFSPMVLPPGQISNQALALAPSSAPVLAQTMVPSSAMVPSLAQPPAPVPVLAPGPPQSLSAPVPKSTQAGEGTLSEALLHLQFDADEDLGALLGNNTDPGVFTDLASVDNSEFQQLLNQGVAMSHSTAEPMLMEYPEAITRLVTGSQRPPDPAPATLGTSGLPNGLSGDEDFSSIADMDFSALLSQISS
UniProt P27467, residues 19-352: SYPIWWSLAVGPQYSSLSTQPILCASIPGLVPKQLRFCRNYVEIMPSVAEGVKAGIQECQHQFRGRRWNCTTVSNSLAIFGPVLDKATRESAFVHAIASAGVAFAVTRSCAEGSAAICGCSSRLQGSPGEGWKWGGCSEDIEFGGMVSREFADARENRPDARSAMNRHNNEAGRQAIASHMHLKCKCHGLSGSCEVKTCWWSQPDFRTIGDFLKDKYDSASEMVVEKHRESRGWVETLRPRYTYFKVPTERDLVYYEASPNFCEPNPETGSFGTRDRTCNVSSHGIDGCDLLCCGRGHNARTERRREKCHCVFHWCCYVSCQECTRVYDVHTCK

Experiments:
[1] = biological target: T1, β-catenin (rat (endogenous in rat ENS cells)) (UniProt Q9WU82); assay: co-IP; nuclear protein extracts (RIPA) of rat ENS cells cultured for 7 days in SM or BM; immunoaffinity purification with anti-NF-κB p65 or anti-β-catenin pre-immobilized onto Protein A Sepharose; Western blot with both antibodies on a 6.5% polyacrylamide gel
T1 sequence: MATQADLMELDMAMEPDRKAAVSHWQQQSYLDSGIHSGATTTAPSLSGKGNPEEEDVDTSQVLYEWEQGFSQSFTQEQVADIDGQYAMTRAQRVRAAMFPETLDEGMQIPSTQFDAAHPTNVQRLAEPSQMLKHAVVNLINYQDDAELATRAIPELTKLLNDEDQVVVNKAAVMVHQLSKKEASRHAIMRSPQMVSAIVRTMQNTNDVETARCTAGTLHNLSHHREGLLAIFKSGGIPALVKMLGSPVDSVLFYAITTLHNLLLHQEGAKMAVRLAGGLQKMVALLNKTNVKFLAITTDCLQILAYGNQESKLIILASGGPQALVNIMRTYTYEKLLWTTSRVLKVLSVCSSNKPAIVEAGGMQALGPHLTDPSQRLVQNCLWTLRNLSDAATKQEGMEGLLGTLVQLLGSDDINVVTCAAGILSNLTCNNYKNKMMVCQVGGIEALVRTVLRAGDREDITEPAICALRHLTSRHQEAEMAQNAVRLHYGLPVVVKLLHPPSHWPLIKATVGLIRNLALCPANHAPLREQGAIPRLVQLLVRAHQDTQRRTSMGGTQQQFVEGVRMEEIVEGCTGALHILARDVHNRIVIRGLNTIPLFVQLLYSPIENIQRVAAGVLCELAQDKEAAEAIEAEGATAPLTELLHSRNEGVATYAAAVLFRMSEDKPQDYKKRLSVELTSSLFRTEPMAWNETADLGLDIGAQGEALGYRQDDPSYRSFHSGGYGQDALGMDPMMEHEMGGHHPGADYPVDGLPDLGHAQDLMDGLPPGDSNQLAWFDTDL

[2] = biological target: T2, Frizzled 9 (rat (endogenous in rat ENS cells)) (UniProt Q8K4C8); assay: co-IP; recombinant Wnt3a (200 ng/mL) added to protein extracts of rat ENS cells cultured for 7 days in SM or BM, overnight at 4°C; immunoaffinity purification with goat anti-rat Frizzled 9 and rabbit anti-rat Wnt3a pre-immobilized onto Protein A Sepharose; Western blot with the same antibodies on a 4%-15% gradient gel; only the binder purified
T2 sequence: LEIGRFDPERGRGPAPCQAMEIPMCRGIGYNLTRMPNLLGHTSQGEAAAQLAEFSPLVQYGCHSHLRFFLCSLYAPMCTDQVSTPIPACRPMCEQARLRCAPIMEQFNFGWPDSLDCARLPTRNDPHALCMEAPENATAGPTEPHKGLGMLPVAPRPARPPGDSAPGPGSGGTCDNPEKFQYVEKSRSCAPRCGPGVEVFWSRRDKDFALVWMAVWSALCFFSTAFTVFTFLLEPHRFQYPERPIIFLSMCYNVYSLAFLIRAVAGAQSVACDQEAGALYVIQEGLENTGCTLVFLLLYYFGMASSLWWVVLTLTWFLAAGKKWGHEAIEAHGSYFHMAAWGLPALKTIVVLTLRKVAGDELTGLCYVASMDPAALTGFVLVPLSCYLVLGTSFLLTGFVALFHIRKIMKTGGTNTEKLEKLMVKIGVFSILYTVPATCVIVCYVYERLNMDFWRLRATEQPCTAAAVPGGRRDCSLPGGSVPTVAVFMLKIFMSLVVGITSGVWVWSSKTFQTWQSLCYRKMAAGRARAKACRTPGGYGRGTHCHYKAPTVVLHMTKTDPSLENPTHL

| Substance | binding [1] | binding [2] |
| --- | --- | --- |
| NF-κB p65 (from UniProt Q7TQN4 1-550) | binds | – |
| Recombinant Wnt3a protein (from UniProt P27467 19-352) (ligand) | – | binds |
